According to paper doi:10.1101/2022.02.14.480324:
These are yes or no findings as the source states them, for the method shown. Sequences can lack the tags named with a protein.

Experiments:
Assay in all cases: two-hybrid
[1] = biological target: N-terminal truncated OsTPL (OsTPLn) fused with the GAL4 BD (Oryza sativa)
[2] = biological target: N-terminal truncated OsTPR1 (OsTPR1n) fused with the GAL4 BD (Oryza sativa)
[3] = biological target: N-terminal truncated OsTPR2 (OsTPR2n) fused with the GAL4 BD (Oryza sativa)

Measured: binding

B1: full-length OsIRO2 fused with the GAL4 AD (protein, UniProt Q0JFZ0 1-247)
chain: MEQLFVDDPAFASSMSSLEADIFSGAGQLPSSPWLDLDLDDDVQDLSMAPTTANAVSSGYGSGGSGSHRKLSHNAYERDRRKQLNELYSSLRALLPDADHTKLSIPTTVSRVLKYIPELQKQVENLERKKKELTTTSTTNCKPGVLGSQLMSEGMAPIVSATCINDMEIMVQVSLLSNVAGSVLPLSKCIKVLENEGLHFISSSTSSGFGNRTFYSIHLQRSEGTINEECPAFCERLEKVVRNKAKL
no binding: all assays above
